Measurements taken from US8569543B2, “CCR9 inhibitors and methods of use thereof” (Millennium Pharmaceuticals, Inc., priority 2002, dated 2013).
Some entries share one result that the patent states for a list of compounds.

Molecular target: T1, human CCR9 receptors (Homo sapiens, UniProt P51686)
T1 sequence (P51686 1-369): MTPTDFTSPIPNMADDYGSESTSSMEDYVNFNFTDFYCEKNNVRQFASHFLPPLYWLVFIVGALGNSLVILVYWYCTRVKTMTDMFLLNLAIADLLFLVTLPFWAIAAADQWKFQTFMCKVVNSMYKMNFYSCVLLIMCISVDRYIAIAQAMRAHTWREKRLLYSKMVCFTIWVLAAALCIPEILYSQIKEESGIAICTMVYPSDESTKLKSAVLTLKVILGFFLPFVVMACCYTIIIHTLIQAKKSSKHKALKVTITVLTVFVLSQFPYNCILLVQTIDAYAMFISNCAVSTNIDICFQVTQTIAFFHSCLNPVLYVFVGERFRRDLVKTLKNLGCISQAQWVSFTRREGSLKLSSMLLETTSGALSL
Experiment: FLIPR assay: inhibitors of TECK induced response in CHO cells over expressing recombinant human CCR9 and the Ga16 protein
Type: cell-based
Design: expressed in transfected cells; host or cells: Chinese Hamster Ovary (CHO) cells
Settings: inhibition of rhTECK induced response in CHO cells

Row | SMILES | IC50 [µM]
1 | CCCc1ccc(S(=O)(=O)Nc2ccc(Cl)cc2C(=O)c2ccccc2)cc1 [Example 12, N-(2-Benzoyl-4-chloro-phenyl)-4-propyl-benzenesulfonamide] | ≤ 1
2 | O=C(c1ccccc1)c1cc(Cl)ccc1NS(=O)(=O)c1ccc(Cl)cc1 [Example 10, N-(2-Benzoyl-4-chloro-phenyl)-4-chloro-benzenesulfonamide] | ≤ 1
3 | O=C(c1ccccc1)c1cc(Cl)ccc1NS(=O)(=O)c1ccc([N+](=O)[O-])cc1 [Example 82, N-(2-Benzoyl-4-chloro-phenyl)-4-nitro-benzenesulfonamide] | ≤ 1
4 | CC(C)Oc1ccc(S(=O)(=O)Nc2ncc(Cl)cc2C(=O)c2ccccc2)cn1 [Example 140, 6-Isopropoxy-pyridine-3-sulfonic acid (3-benzoyl-5-chloro-pyridin-2-yl)-amide] | ≤ 1
5 | Cc1ccc(S(=O)(=O)Nc2ccc(Cl)cc2C(=O)c2cccc(F)c2)cc1 [Example 80, N-[4-Chloro-2-(3-fluoro-benzoyl)-phenyl]-4-methyl-benzenesulfonamide] | ≤ 1
6 | CCOc1ccc(S(=O)(=O)Nc2ncc(Cl)cc2C(=O)c2ccncc2)cc1 [Example 35, N-[5-Chloro-3-(pyridine-4-carbonyl)-pyridin-2-yl]-4-ethoxy-benzenesulfonamide] | ≤ 1
7 | CC(C)Oc1ccc(S(=O)(=O)Nc2ncc(Cl)cc2C(=O)c2cccs2)cc1 [Example 124, N-[5-Chloro-3-(thiophene-2-carbonyl)-pyridin-2-yl]-4-isopropoxy-benzenesulfonamide] | ≤ 1
8 | CC(C)c1ccc(S(=O)(=O)Nc2ccc(Cl)cc2C(=O)c2cccc(Cl)c2)cc1 [Example 81, N-[4-Chloro-2-(3-chloro-benzoyl)-phenyl]-4-isopropyl-benzenesulfonamide] | ≤ 1
9 | CC(C)Oc1ccc(S(=O)(=O)Nc2ncc(Cl)cc2C(=O)c2cc3ccccc3o2)cc1 [Example 126, N-[3-(Benzofuran-2-carbonyl)-5-chloro-pyridin-2-yl]-4-isopropoxy-benzenesulfonamide] | ≤ 1
10 | O=C(c1cccc(F)c1)c1cc(Cl)cnc1NS(=O)(=O)c1ccc(-c2cnco2)s1 [Example 125, 5-Oxazol-5-yl-thiophene-2-sulfonic acid [5-chloro-3-(3-fluoro-benzoyl)-pyridin-2-yl]-amide] | ≤ 1
11 | CCc1ccc(S(=O)(=O)Nc2ccc([N+](=O)[O-])cc2C(=O)c2ccccc2)cc1 [Example 14, N-(2-Benzoyl-4-nitro-phenyl)-4-ethyl-benzenesulfonamide] | ≤ 1
12 | CC(C)c1ccc(S(=O)(=O)Nc2ncc(Cl)cc2C(=O)c2cccc(F)c2)cc1 [Example 122, N-[5-Chloro-3-(3-fluoro-benzoyl)-pyridin-2-yl]-4-isopropyl-benzenesulfonamide] | ≤ 1
13 | CCc1ccc(S(=O)(=O)Nc2ccc(Cl)cc2C(=O)c2ccccc2)cc1 [Example 13, N-(2-Benzoyl-4-chloro-phenyl)-4-ethyl-benzenesulfonamide] | ≤ 1
14 | CC(C)c1ccc(S(=O)(=O)Nc2ccc(Cl)cc2Oc2cccnc2)cc1 [Example 135, N-[4-Chloro-2-(pyridin-3-yloxy)-phenyl]-4-isopropyl-benzenesulfonamide] | ≤ 1
15 | CC(C)(C)c1ccc(S(=O)(=O)Nc2ccc(Cl)cc2C(=O)c2ccccc2)cc1 [Example 11, N-(2-Benzoyl-4-chloro-phenyl)-4-tert-butyl-benzenesulfonamide] | ≤ 1
16 | CCN(CC)c1ccc(S(=O)(=O)Nc2ccc(Cl)cc2C(=O)c2ccccc2)cc1 [Example 83, N-(2-Benzoyl-4-chloro-phenyl)-4-diethylamino-benzenesulfonamide] | ≤ 1
17 | O=C(c1ccccc1)c1cc(Cl)cnc1NS(=O)(=O)c1ccc(-c2cnco2)s1 [Example 131, 5-Oxazol-5-yl-thiophene-2-sulfonic acid (3-benzoyl-5-chloro-pyridin-2-yl)-amide] | ≤ 1
18 | O=C(c1cccnc1)c1cc(Cl)ccc1NS(=O)(=O)c1ccc(Cl)cc1 [Example 85, 4-Chloro-N-[4-chloro-2-(pyridine-3-carbonyl)-phenyl]-benzenesulfonamide] | ≤ 1

Next, values leading:

Row | IC50 [µM] | SMILES
19 | ≤ 1 | COc1ccc(S(=O)(=O)Nc2ccc(Cl)cc2C(=O)c2ccccc2)cc1 [Example 75, N-(2-Benzoyl-4-chloro-phenyl)-4-methoxy-benzenesulfonamide]
20 | ≤ 1 | CC(C)c1ccc(S(=O)(=O)Nc2cnccc2C(=O)c2ccccc2)cc1 [Example 133, N-(4-Benzoyl-pyridin-3-yl)-4-isopropyl-benzenesulfonamide]
21 | ≤ 1 | CCCOc1ccc(S(=O)(=O)Nc2ccc(Cl)cc2C(=O)c2ccccc2)cc1 [Example 23, N-(2-Benzoyl-4-chloro-phenyl)-4-propoxy-benzenesulfonamide]
22 | ≤ 1 | CCNc1ccc(S(=O)(=O)Nc2ccc(Cl)cc2C(=O)c2ccccc2)cc1 [Example 77, N-(2-Benzoyl-4-chloro-phenyl)-4-ethylamino-benzenesulfonamide]
23 | ≤ 1 | O=C(c1ccccc1)c1cc(Cl)ccc1NS(=O)(=O)c1ccc(I)cc1 [Example 9, N-(2-Benzoyl-4-chloro-phenyl)-4-iodo-benzenesulfonamide]
24 | ≤ 1 | CC(C)Oc1ccc(S(=O)(=O)Nc2ccc(Cl)cc2C(=O)c2cc[n+]([O-])cc2)cc1 [Example 119, N-[4-Chloro-2-(1-oxy-pyridine-4-carbonyl)-phenyl]-4-isopropoxy-benzenesulfonamide]
25 | ≤ 1 | CC(C)c1ccc(S(=O)(=O)Nc2ccc([N+](=O)[O-])cc2C(=O)c2ccccc2)cc1 [Example 69, N-(2-Benzoyl-4-nitro-phenyl)-4-isopropyl-benzenesulfonamide]
26 | ≤ 1 | CC(C)Oc1ccc(S(=O)(=O)Nc2ccc(I)cc2C(=O)c2ccccc2)cc1 [Example 79, N-(2-Benzoyl-4-iodo-phenyl)-4-isopropoxy-benzenesulfonamide]
27 | ≤ 1 | CC(C)Oc1ccc(S(=O)(=O)Nc2cnccc2C(=O)c2ccccc2)cc1 [Example 134, N-(4-Benzoyl-pyridin-3-yl)-4-isopropoxy-benzenesulfonamide]
28 | ≤ 1 | CC(C)Oc1ccc(S(=O)(=O)Nc2cccnc2C(=O)c2ccccc2)cc1 [Example 136, N-(2-Benzoyl-pyridin-3-yl)-4-isopropoxy-benzenesulfonamide]
29 | ≤ 1 | CC(C)Oc1ccc(S(=O)(=O)Nc2ccc(C(F)(F)F)cc2C(=O)c2ccccc2)cc1 [Example 127, N-(2-Benzoyl-4-trifluoromethyl-phenyl)-4-isopropoxy-benzenesulfonamide]
30 | ≤ 1 | CC(C)Oc1ccc(S(=O)(=O)Nc2ccc(Cl)cc2C(=O)c2ccccc2)cn1 [Example 141, 6-Isopropoxy-pyridine-3-sulfonic acid (2-benzoyl-4-chloro-phenyl)-amide]
31 | ≤ 1 | CC(C)Oc1ccc(S(=O)(=O)Nc2ccc(Cl)cc2C(=O)c2ccncc2)cc1 [Example 118, N-[4-Chloro-2-(pyridine-4-carbonyl)-phenyl]-4-isopropoxy-benzenesulfonamide]
32 | ≤ 1 | CC(C)Oc1ccc(S(=O)(=O)Nc2ccncc2C(=O)c2ccccc2)cc1 [Example 128, N-(3-Benzoyl-pyridin-4-yl)-4-isopropoxy-benzenesulfonamide]
33 | ≤ 1 | CC(C)Oc1ccc(S(=O)(=O)Nc2ncc(Cl)cc2C(=O)c2cccc(F)c2)cc1 [Example 123, N-[5-Chloro-3-(3-fluoro-benzoyl)-pyridin-2-yl]-4-isopropoxy-benzenesulfonamide]
34 | ≤ 1 | CC(C)Oc1ccc(S(=O)(=O)Nc2ccccc2C(=O)c2ccccc2)cc1 [Example 143, N-(2-Benzoyl-phenyl)-4-isopropoxy-benzenesulfonamide]
35 | ≤ 1 | COc1ccc(S(=O)(=O)Nc2ccc([N+](=O)[O-])cc2C(=O)c2ccccc2)cc1 [Example 71, N-(2-Benzoyl-4-nitro-phenyl)-4-methoxy-benzenesulfonamide]
36 | ≤ 1 | CC(C)c1ccc(S(=O)(=O)Nc2ncc(Cl)cc2C(=O)c2ccccc2)cc1 [Example 129, N-(3-Benzoyl-5-chloro-pyridin-2-yl)-4-isopropyl-benzenesulfonamide]
37 | ≤ 1 | COc1ccc(S(=O)(=O)Nc2ccc(Cl)cc2C(=O)c2cccnc2)cc1 [Example 88, N-[4-Chloro-2-(pyridine-3-carbonyl)-phenyl]-4-methoxy-benzenesulfonamide]
38 | ≤ 1 | O=C(c1ccccc1)c1cc(Cl)ccc1NS(=O)(=O)c1ccc(OC(F)(F)F)cc1 [Example 72, N-(2-Benzoyl-4-chloro-phenyl)-4-trifluoromethoxy-benzenesulfonamide]
39 | ≤ 1 | CC(C)Oc1ccc(S(=O)(=O)Nc2ncccc2C(=O)c2cccc(F)c2)cc1 [Example 137, N-[3-(3-Fluoro-benzoyl)-pyridin-2-yl]-4-isopropoxy-benzenesulfonamide]
40 | ≤ 1 | CC(C)Oc1ccc(S(=O)(=O)Nc2ccc(Cl)cc2Oc2cccnc2)cc1 [Example 138, N-[4-Chloro-2-(pyridin-3-yloxy)-phenyl]-4-isopropoxy-benzenesulfonamide]
41 | ≤ 1 | CC(C)Oc1ccc(S(=O)(=O)Nc2ccc(C(F)(F)F)cc2C(=O)c2ccncc2)cc1 [Example 120, 4-Isopropoxy-N-[2-(pyridine-4-carbonyl)-4-trifluoromethyl-phenyl]-benzenesulfonamide]
42 | ≤ 1 | COc1ccc(S(=O)(=O)Nc2ccc(F)cc2C(=O)c2ccccc2)cc1 [Example 84, N-(2-Benzoyl-4-fluoro-phenyl)-4-methoxy-benzenesulfonamide]
